This assay has as its target gp350-hFc (Epstein-Barr virus) (UniProt P03200). Kind of assay: ELISA, gp350-hFc coated, titrated binder.

Protein sequences, listed by entry. Tags and fused reporters are not part of them. Residues count along the entry.
UniProt P03200, residues 1-860: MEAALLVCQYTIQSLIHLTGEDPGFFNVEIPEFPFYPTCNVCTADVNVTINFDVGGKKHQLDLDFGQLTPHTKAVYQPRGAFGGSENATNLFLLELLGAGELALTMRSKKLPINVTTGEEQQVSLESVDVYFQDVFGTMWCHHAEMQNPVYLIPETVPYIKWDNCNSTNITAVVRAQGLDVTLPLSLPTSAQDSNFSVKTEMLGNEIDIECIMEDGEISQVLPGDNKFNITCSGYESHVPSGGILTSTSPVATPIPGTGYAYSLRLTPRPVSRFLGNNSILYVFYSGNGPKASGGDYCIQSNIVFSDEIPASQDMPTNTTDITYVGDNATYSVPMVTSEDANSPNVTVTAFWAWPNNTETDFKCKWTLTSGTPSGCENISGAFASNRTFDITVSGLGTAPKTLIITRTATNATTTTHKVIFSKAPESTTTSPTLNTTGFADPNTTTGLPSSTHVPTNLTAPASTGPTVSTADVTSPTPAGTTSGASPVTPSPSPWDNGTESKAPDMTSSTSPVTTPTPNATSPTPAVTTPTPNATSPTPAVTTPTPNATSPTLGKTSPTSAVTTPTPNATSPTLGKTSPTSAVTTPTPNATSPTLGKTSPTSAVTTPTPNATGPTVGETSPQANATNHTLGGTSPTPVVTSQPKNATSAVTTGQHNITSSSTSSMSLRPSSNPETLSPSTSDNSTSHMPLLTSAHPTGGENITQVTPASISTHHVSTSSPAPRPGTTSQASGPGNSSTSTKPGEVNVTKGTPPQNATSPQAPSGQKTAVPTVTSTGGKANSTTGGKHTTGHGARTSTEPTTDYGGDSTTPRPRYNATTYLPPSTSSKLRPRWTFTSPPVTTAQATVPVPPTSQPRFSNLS
UniProt P20023, residues 21-971: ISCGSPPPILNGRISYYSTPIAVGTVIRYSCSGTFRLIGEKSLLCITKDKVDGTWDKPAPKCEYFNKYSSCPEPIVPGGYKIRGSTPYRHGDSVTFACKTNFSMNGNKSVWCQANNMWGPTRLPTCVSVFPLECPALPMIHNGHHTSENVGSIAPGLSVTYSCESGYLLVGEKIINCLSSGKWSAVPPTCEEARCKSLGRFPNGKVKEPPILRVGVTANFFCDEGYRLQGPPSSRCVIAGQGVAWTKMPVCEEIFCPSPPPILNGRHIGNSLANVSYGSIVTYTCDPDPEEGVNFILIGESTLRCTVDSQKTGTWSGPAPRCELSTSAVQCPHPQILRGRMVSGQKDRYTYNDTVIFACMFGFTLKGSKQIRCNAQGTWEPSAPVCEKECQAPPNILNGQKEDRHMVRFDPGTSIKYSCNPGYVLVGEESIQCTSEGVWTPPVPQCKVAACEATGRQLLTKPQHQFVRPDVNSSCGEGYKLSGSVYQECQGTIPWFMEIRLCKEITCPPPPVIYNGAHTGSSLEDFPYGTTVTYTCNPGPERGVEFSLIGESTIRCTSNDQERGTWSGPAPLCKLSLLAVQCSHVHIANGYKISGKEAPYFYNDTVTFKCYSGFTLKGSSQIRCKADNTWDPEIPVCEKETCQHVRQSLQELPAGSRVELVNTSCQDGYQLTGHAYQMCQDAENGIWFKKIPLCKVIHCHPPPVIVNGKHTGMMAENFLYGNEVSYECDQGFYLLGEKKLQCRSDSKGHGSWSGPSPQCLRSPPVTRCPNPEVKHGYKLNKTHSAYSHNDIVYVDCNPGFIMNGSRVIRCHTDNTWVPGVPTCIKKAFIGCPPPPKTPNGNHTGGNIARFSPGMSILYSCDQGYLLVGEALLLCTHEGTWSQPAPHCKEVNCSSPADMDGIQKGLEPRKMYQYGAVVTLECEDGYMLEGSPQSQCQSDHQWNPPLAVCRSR

These are yes or no findings as the source states them, for the method shown. Some results given as binding are weak or reduced against the parent protein; the word gives no strength.

Take “重组CR2蛋白 (from UniProt P20023 21-971) (receptor)”: the binding entry is listed as “binds”.
